Source: article PMC10937711
These are yes or no findings as the source states them, for the method shown. In cells and extracts the contact can be indirect. Some entries that bind do so weakly or less than the wild type.

Protein sequences, listed by entry. Tags and fused reporters are not part of them.
UniProt Q9Y2J4: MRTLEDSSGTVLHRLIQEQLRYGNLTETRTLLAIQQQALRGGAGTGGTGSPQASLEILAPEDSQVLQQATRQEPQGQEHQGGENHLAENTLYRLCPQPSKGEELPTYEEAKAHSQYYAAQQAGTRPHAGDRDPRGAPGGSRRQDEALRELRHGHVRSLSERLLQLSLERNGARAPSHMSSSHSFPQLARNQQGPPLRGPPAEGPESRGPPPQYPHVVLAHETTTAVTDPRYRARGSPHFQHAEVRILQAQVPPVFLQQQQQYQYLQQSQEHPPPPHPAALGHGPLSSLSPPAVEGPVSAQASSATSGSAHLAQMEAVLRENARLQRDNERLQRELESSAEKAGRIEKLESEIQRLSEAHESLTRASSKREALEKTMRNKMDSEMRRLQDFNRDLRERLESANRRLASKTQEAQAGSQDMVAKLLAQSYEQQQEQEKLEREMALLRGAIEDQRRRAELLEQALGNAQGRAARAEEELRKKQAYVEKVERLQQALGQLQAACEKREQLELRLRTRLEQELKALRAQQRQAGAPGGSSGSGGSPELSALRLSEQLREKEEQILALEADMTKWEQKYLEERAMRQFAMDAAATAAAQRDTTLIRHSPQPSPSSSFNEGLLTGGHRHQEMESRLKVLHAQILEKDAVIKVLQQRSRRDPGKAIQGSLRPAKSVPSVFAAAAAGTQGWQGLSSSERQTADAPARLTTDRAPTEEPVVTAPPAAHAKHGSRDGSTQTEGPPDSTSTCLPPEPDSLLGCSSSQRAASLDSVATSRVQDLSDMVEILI

What was measured:
[1] = molecular target: AMOTL2 in HCT116 cell xenograft tumors (human (endogenous in HCT116)) (UniProt Q9Y2J4); experiment: condition: only tumors of mice treated with XAV939 (20 mg/kg); co-IP; immunoprecipitation from HCT116 cell xenograft tumors of mice dosed with XAV939 (20 mg/kg every 3 days, intraperitoneal)
[2] = molecular target: AMOTL2 in HCT116 cell xenograft tumors (human (endogenous in HCT116)) (UniProt Q9Y2J4); experiment: co-IP; immunoprecipitation from HCT116 cell xenograft tumors of control (DMSO) mice; which protein was precipitated is not told
AMOTL2 (human) = AMOTL2 (human) (UniProt Q9Y2J4); experiment: pull-down; SBP-tagged AMOT (WT, truncations, point mutants) or AMOTL2 constructs as bait, RNF166 as prey; plasmids transfected into 293T cells for 48 h; streptavidin pulldown, immunoblot

binding [1]	binding [2]	binding (AMOTL2 (human))	Substance
no binding	binds		RNF166 in HCT116 cell xenograft tumors (from UniProt Q96A37 1-237) (enzyme)
		binds	RNF166 (from UniProt Q96A37 1-237) (enzyme)
